Results: patent US9271932B2, “Fusogenic properties of saposin C and related proteins and peptides for application to transmembrane drug delivery systems” (CHILDREN'S HOSPITAL MEDICAL CENTER, priority 2006, dated 2016)

Legend:
[1] = Circular dichroism (195-250 nm) analyses of saposins with various phospholipids; conditions: for % α / % β: CD 195-250 nm, deconvoluted by Yang's method; for relative secondary structural changes induced by membrane binding / secondary structure changes in the PS (18:1,1) complexes: CD spectroscopy; for relative secondary structural changes induced by membrane binding: lipid-bound vs lipid-free
Text: (§1) To determine the specificity of saposin C-phospholipid interaction, a liposomal system is developed using CD, fluorescence emission shifts, and fluorescence quenching methods. Mutated saposins C's, produced to contain individual Trp (W), are termed saposin C(0W), (S37W), and (81W). These Trp-labeled saposin C's are as follows: saposin C(0W) has a Trp preceding the first NH2-terminal amino acid of mature saposin C, saposin C(S37W) has a Trp at residue 37 (i.e., in the middle), and saposin C(81W) has a Trp after the last COOH-terminal amino acid. These substitutions had no effect on the activation properties or CD spectra of saposin C.
Using CD spectroscopy, relative secondary structural changes of recombinant saposins are induced by membrane binding.
No changes are observed with saposin A and B in the PS (18:1,1) complexes. […] The CD data are collected on a Jasco 710 instrument, and deconvoluted using Yang's method (see Chang, C. T., Wu, C. S., and Yang, J. T. Anal. Biochem (1978) 91, 13-31). b) Fluorescence Emission Spectra

[2] = Fluorescence emission maxima of Trp-saposins in absence and presence of BPS liposomes; format: binding; conditions: for Emission Maxima (EM, nm) −BPS: absence of BPS, pH 4.7; for Emission Maxima (EM, nm) +BPS: presence of BPS, pH 4.7, protein:lipid=1:20 to 40
Text: as §1
Emission spectra of proteins shift when the tryptophanyl environments change polarity.
Experiments conditions: pH 4.7, protein:lipid=1:20 to 40. No differences are observed at 22 or 37° C.

| Molecule | % α [1] [%] | % β [1] [%] | Emission Maxima (EM, nm) −BPS [2] [nm] | Emission Maxima (EM, nm) +BPS [2] [nm] | other results |
| --- | --- | --- | --- | --- | --- |
| Saposin B + Phosphatidylcholine (18:1, 1): saposin B complexed with neutral phosphatidylcholine (18:1,1) liposomes (protein, UniProt P07602 195-273, looked up, Saposin-B complexed with phosphatidylcholine liposomes, saposin B complexed with neutral phosphatidylcholine (18:1,1) liposomes) Saposin-B: GDVCQDCIQMVTDIQTAVRTNSTFVQALVEHVKEECDRLGPGMADICKNYISQYSEIAIQMMMHMQPKEICALVGFCDE | 68.2 | 24.2 |  |  | relative secondary structural changes induced by membrane binding [1]: decrease the β-strand and an increase the α-helix content |
| Saposin B + Phosphatidylserine (18:1, 1): saposin B with phosphatidylserine (18:1,1) liposomes (protein, UniProt P07602 195-273, looked up, Saposin-B with phosphatidylserine liposomes, saposin B with phosphatidylserine (18:1,1) liposomes) Saposin-B: GDVCQDCIQMVTDIQTAVRTNSTFVQALVEHVKEECDRLGPGMADICKNYISQYSEIAIQMMMHMQPKEICALVGFCDE | 43.8 | 38.8 |  |  |  |
| Saposin B: Recombinant saposin B, prosaposin-derived sphingolipid activator protein expressed in E. coli (protein, UniProt P07602 195-273, looked up, Saposin-B) Saposin-B: GDVCQDCIQMVTDIQTAVRTNSTFVQALVEHVKEECDRLGPGMADICKNYISQYSEIAIQMMMHMQPKEICALVGFCDE | 43.7 | 36.6 |  |  | secondary structure changes in the PS (18:1,1) complexes [1]: No changes |
| Saposin C(S37W): saposin C with a Trp at residue 37 (in the middle) (protein, UniProt P07602 311-390, looked up, variant S37W, Saposin-C) Saposin-C: SDVYCEVCEFLVKEVTKLIDNNKTEKEILDAFDKMCWKLPKSLSEECQEVVDTYGSSILSILLEEVSPELVCSMLHLCSG |  |  | 351 | 351 | effect of Trp substitutions on CD spectra of saposin C [1]: no effect |
| Saposin C(S37W, Q48A/E49A): Trp-labeled saposin C mutant S37W, Q48A/E49A (protein, UniProt P07602 311-390, looked up, variant S37W Q48A E49A, Saposin-C) Saposin-C: SDVYCEVCEFLVKEVTKLIDNNKTEKEILDAFDKMCWKLPKSLSEECAAVVDTYGSSILSILLEEVSPELVCSMLHLCSG |  |  | 338 | 329 |  |
| Saposin C(S37W, Q48N): Trp-labeled saposin C mutant S37W, Q48N (protein, UniProt P07602 311-390, looked up, variant S37W Q48N, Saposin-C) Saposin-C: SDVYCEVCEFLVKEVTKLIDNNKTEKEILDAFDKMCWKLPKSLSEECNEVVDTYGSSILSILLEEVSPELVCSMLHLCSG |  |  | 345 | 339 |  |
| Saposin C + Phosphatidylserine (18:1, 1): saposin C complexed with acidic, unsaturated phosphatidylserine PS(18:1,1) liposomes (protein, UniProt P07602 311-390, looked up, Saposin-C complexed with phosphatidylserine liposomes, saposin C complexed with acidic, unsaturated phosphatidylserine PS(18:1,1) liposomes) Saposin-C: SDVYCEVCEFLVKEVTKLIDNNKTEKEILDAFDKMCSKLPKSLSEECQEVVDTYGSSILSILLEEVSPELVCSMLHLCSG | 49.8 | 3.9 |  |  | relative secondary structural changes induced by membrane binding [1]: decrease the β-strand and an increase the α-helix content |
| Saposin C + Phosphatidylcholine (18:1, 1): saposin C with neutral phosphatidylcholine (18:1,1) liposomes (protein, UniProt P07602 311-390, looked up, Saposin-C with phosphatidylcholine liposomes, saposin C with neutral phosphatidylcholine (18:1,1) liposomes) Saposin-C: SDVYCEVCEFLVKEVTKLIDNNKTEKEILDAFDKMCSKLPKSLSEECQEVVDTYGSSILSILLEEVSPELVCSMLHLCSG | 30.6 | 41.0 |  |  |  |
| Saposin C: Recombinant saposin C, prosaposin-derived fusogenic lysosomal protein, expressed in E. coli (His-tag) (protein, listed as Homo sapiens, His-tag) SDVYCEVCEFLVKEVTKLIDNNKTEKEILDAFDKMCSKLPKSLSEECQEVVDTYGSSILSILLEEVSPELVCSMLHLCSG | 29.9 | 41.7 |  |  |  |
| Saposin C + Phosphatidylserine (18:0, 0): saposin C with saturated phosphatidylserine PS(18:0,0) liposomes (protein, UniProt P07602 311-390, looked up, Saposin-C with saturated phosphatidylserine liposomes, saposin C with saturated phosphatidylserine PS(18:0,0) liposomes) Saposin-C: SDVYCEVCEFLVKEVTKLIDNNKTEKEILDAFDKMCSKLPKSLSEECQEVVDTYGSSILSILLEEVSPELVCSMLHLCSG | 30.1 | 40.4 |  |  |  |
| Saposin A: Recombinant saposin A, prosaposin-derived sphingolipid activator protein (protein, UniProt P07602 60-142, looked up, Saposin-A) Saposin-A: SLPCDICKDVVTAAGDMLKDNATEEEILVYLEKTCDWLPKPNMSASCKEIVDSYLPVILDIIKGEMSRPGEVCSALNLCESLQ | 44.0 | 31.9 |  |  | secondary structure changes in the PS (18:1,1) complexes [1]: No changes |
| Saposin A(37W): saposin A with Trp at residue 37; wild-type A contains a natural Trp (37W) (protein, UniProt P07602 60-142, looked up, Saposin-A) Saposin-A: SLPCDICKDVVTAAGDMLKDNATEEEILVYLEKTCDWLPKPNMSASCKEIVDSYLPVILDIIKGEMSRPGEVCSALNLCESLQ |  |  | 351 | 338 |  |
| Saposin A + Phosphatidylserine (18:1, 1): saposin A with phosphatidylserine (18:1,1) liposomes (protein, UniProt P07602 60-142, looked up, Saposin-A with phosphatidylserine liposomes, saposin A with phosphatidylserine (18:1,1) liposomes) Saposin-A: SLPCDICKDVVTAAGDMLKDNATEEEILVYLEKTCDWLPKPNMSASCKEIVDSYLPVILDIIKGEMSRPGEVCSALNLCESLQ | 39.3 | 34.9 |  |  |  |
| Saposin A(37W, G64E): saposin A (37W) mutant G64E (protein, UniProt P07602 60-142, looked up, variant G64E, Saposin-A, saposin A (37W) mutant G64E) Saposin-A: SLPCDICKDVVTAAGDMLKDNATEEEILVYLEKTCDWLPKPNMSASCKEIVDSYLPVILDIIKEEMSRPGEVCSALNLCESLQ |  |  | 344 | 358 |  |
